Measured values reported in PubChem BioAssay (EPA / NIEHS).
This list was built around the results that the source calls inconclusive (neither active nor inactive); the mix of calls is not that of the screen. Potencies of inconclusive entries are doubtful fits and often do not repeat. Active and inactive are the calls of the source. Rule for the calls: active = hit-call score of the fitted dose curve at least 0.9, where 1 is the maximum; inconclusive = response in the unintended direction; inactive = score below 0.9.

Sequences of proteins named here, by UniProt entry; tags and fusion partners are left off. A change or cut given only in a name is not applied to a line headed by its entry.
UniProt P28702: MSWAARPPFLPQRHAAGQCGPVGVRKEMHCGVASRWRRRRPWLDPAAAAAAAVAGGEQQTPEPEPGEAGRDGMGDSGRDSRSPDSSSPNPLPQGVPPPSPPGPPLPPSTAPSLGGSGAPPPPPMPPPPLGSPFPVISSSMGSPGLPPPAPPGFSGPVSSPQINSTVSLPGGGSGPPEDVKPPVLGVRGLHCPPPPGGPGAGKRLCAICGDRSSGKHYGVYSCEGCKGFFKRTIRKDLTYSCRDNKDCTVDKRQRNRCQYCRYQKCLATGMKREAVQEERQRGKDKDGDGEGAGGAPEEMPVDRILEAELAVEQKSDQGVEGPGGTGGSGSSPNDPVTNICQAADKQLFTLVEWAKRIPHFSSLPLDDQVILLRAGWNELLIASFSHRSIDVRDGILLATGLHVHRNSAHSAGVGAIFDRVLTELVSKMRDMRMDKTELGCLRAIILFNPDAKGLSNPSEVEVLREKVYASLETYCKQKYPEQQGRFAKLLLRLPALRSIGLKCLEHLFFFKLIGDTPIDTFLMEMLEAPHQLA

The molecules below were run against human Retinoid X Receptor beta (RXRb), RXRB (gene 6257) (UniProt P28702) (assay: ATG_RXRb_TRANS: Attagene TRANS-FACTORIAL HepG2 Assay for human Retinoid X Receptor beta (RXRb) (AID 2283013)).
Summary of the method: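 Chimeric receptor-Gal4 activity was assessed in transiently transfected human HepG2 cells after 24 h exposure. Transcripts from GAL4-UAS reporters were quantified by fluorescent RT-PCR and capillary electrophoresis, with DMSO as negative control and baseline.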

Row | Structure (SMILES) | AC50 | outcome
2 | CNNCc1ccc(C(=O)NC(C)C)cc1 | inconclusive: 184 µM | –
3 | CCCC(=O)OCCC(C)CCC=C(C)C (centres undefined) | inconclusive: 100 µM | –
4 | CC=CC(F)(F)C(F)(F)C(F)(F)F | – | inactive
5 | CCCCOC(=O)c1ccccc1 | – | inactive
6 | O=S(=O)(Oc1ccc(Cl)cc1Cl)c1ccccc1 | – | inactive
7 | CC(C)(C)CC(C)(C)c1ccc(OCCOCC[N+](C)(C)Cc2ccccc2)cc1 | inconclusive: 8.35 µM | –
8 | O=C1OC2(c3ccccc31)c1ccc(O)c(Br)c1Oc1c2ccc(O)c1Br | – | inactive
9 | CC(C)OC(=O)COc1ccc(Cl)cc1Cl | inconclusive: 5.22 µM | –
10 | C=Cc1ccc(OC(C)=O)cc1 | – | inactive
11 | CCC1CCCCC1 | inconclusive: 0.0823 µM | –
13 | COc1cc(-c2nc(NC(=O)c3cc4cc(C)cc(C)c4n3CC(=O)O)sc2CCC2CCCCC2)c(OC)cc1Cl | inconclusive: 6.09 µM | –
14 | O=C(O)c1cc(O)c2ccccc2c1O | – | inactive
15 | COC(=O)c1c(Cl)nn(C)c1S(=O)(=O)NC(=O)Nc1nc(OC)cc(OC)n1 | inconclusive: 16.2 µM | –
16 | COc1c2ccoc2cc2oc(=O)ccc12 | – | inactive
17 | O=S(=O)(O)CCCN1CCOCC1 | – | inactive
19 | CC(C)(C)C1CCC(O)CC1 (centres undefined) | – | inactive

Two entries drawn at random from the list so far, as already listed:
Row | Structure (SMILES) | AC50 | outcome
17 | O=S(=O)(O)CCCN1CCOCC1 | – | inactive
3 | CCCC(=O)OCCC(C)CCC=C(C)C (centres undefined) | inconclusive: 100 µM | –
